Test results: paper PMC7408393
The exact form of at least one protein or probe is not confirmed. At least one result comes from cells or an extract, where the contact may be indirect. For some of these results: No signal at the amounts used counts as a negative.

Protein sequences, listed by entry. Tags and fused reporters are not part of them. Residues count along the entry.
UniProt P08581, 25-1390: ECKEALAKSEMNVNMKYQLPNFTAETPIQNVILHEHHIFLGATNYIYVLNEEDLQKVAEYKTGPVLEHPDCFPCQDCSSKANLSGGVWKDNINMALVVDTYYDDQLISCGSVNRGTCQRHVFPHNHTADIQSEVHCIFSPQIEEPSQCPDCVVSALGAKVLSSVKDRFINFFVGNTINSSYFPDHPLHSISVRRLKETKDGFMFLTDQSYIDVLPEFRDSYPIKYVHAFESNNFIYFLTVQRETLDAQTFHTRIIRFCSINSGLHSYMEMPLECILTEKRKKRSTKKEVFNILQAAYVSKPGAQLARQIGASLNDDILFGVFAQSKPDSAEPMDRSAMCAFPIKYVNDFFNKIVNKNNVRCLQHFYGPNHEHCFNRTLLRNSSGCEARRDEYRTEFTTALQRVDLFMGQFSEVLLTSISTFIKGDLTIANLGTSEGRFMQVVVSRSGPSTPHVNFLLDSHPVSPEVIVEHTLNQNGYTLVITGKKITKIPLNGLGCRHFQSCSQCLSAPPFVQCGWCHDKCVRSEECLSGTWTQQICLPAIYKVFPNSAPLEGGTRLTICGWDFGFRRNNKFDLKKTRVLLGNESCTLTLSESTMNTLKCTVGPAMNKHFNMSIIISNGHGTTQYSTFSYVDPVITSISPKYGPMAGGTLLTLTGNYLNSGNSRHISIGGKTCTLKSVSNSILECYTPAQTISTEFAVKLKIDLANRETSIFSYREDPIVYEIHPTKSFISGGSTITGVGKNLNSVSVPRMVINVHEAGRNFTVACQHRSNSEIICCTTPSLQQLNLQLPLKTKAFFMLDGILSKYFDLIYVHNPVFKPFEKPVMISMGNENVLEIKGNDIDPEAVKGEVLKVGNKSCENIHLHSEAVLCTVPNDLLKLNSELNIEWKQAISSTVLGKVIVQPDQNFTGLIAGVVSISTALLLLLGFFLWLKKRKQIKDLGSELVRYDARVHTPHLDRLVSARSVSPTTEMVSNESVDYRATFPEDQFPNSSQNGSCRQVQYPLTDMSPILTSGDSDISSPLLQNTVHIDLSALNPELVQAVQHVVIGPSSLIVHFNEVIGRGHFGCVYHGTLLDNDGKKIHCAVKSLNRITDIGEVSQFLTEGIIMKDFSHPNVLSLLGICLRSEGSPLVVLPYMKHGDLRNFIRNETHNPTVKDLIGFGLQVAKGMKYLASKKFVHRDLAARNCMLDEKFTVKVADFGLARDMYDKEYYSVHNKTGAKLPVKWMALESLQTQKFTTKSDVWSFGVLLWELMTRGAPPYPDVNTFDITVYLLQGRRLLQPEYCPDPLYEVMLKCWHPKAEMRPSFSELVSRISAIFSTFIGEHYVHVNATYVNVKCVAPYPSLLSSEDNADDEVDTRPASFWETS
UniProt P19338, whole entry: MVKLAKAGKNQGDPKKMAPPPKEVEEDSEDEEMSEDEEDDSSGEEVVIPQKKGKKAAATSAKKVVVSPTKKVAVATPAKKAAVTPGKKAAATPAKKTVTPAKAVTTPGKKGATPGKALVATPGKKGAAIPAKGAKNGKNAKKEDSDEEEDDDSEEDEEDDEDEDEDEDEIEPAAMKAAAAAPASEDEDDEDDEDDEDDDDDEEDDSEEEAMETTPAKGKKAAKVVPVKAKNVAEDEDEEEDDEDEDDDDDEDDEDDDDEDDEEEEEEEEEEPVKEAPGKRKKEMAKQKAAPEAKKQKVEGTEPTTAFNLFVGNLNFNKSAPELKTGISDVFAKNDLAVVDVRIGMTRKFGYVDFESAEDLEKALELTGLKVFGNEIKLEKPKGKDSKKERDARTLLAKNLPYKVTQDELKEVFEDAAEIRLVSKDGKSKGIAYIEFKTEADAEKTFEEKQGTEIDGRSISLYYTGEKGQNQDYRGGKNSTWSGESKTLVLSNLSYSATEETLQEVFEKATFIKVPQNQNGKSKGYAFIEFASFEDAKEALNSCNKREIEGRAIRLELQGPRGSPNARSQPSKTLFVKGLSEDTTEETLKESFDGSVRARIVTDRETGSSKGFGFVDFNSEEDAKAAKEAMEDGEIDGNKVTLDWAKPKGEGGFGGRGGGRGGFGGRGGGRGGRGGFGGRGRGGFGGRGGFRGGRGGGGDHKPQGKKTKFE

Tests used:
Experiment in all cases: pull-down, immunoblot
c-Met receptor = c-Met receptor (UniProt P08581); conditions: MKN-45 lysate, multivalent aptamer on AuNS; 5' thiol (C6-S-S-C6, reduced), grafted on gold nanostructure (AuNS), about 222 per particle; apt-AuNS incubated with MKN-45 cell lysate, then immunoblot; protein in an extract; folded or branched DNA
nucleolin = nucleolin (UniProt P19338); conditions: MKN-45 lysate, 5' thiol (C6-S-S-C6, reduced), grafted on gold nanostructure (AuNS), apt-AuNS incubated with MKN-45 cell lysate, then immunoblot, protein in an extract, folded or branched DNA
c-Met:nucleolin complex = conditions: MKN-45 lysate, c-Met detected on AuNS-N, attributed to its interaction with nucleolin; 5' thiol (C6-S-S-C6, reduced), grafted on gold nanostructure (AuNS), about 403 per particle; apt-AuNS incubated with MKN-45 cell lysate, then immunoblot; protein in an extract; folded or branched DNA

Row | Sequence | binding result (c-Met receptor) | binding result (nucleolin; nucleolin only detected from AuNS-N, about 222 per particle) | binding result (c-Met:nucleolin complex) | binding result (nucleolin; multivalent aptamer on AuNS, about 403 per particle)
1 | ATCAGGCTGGATGGTAGCTCGGTCGGGGTGGGTGGGTTGGCAAGTCTGAT [anti-c-Met aptamer on AuNS (AuNS-C)] | binds | no binding | – | –
2 | TTTGGTGGTGGTGGTTGTGGTGGTGGTG [anti-nucleolin aptamer AS1411 on AuNS (AuNS-N)] | – | – | binds | binds
